# This is one part of the list. The main result of the screen is listed elsewhere. These columns were measured beside it and carry no call. Most of these compounds were active or inconclusive in the main read-out, so they are no random draw. Potencies come from curve fits of mixed quality, noted in brackets.
# Test: qHTS Assay for Lipid Storage Modulators in Drosophila S3 Cells;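 as to cell number change: cells counted by Cell Tracker Red CMTPX staining in the red channel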
# Details: BODIPY lipid droplet fluorescence, 18-24 h; for cell number change: measured here: cell count max response, cells fed with added oleic acid
# In short: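 Laser-scanning cytometry quantifies lipid droplet accumulation (500–530 nm total intensity; droplet/cell object ratio) in oleic acid-fed (400 uM added) Drosophila S3 cells treated with a concentration series. 20 uM Triacsin C defined 100% inhibition.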
# [1] = measured here: lipid fluorescence (Fed channel) AC50, cells fed with added oleic acid
# [2] = measured here: cell number channel AC50, cells fed with added oleic acid
Structure (SMILES),cell number change [%],AC50 [1],AC50 [2]
CCN1C/C(=C\c2cccc([N+](=O)[O-])c2)C(=O)/C(=C/c2cccc([N+](=O)[O-])c2)C1,-27,"6.51 µM [falling, partial curve, poor fit]",
CCN(CC)C(=O)COc1coc(CN2CCN(c3ccccc3F)CC2)cc1=O,29.5,,
COc1cc(OC)cc(C(=O)OCC(=O)NC(c2ccccc2)c2ccccc2)c1,40.9,"29.1 µM [falling, single point]","29.1 µM [rising, single point]"
CSc1ccccc1C(=O)NCc1ccc2c(c1)OCO2,,"0.058 µM [rising, full curve, poor fit]",
Cc1cc(C(=O)OCC(=O)Nc2cc(C(F)(F)F)ccc2N2CCOCC2)c(C)o1,-20.9,"0.651 µM [rising, partial curve]",
COc1ccc(C2=NOC(C(=O)NCc3cccnc3)C2)cc1 (stereo unspecified),28.8,,
C=CCn1c(C)cc(C(=O)CSc2nc3ccccc3o2)c1C,,"0.731 µM [rising, full curve]","0.92 µM [rising, full curve]"
Cc1cc(NCCN2CCOCC2)n2c(nc3ccccc32)c1C#N,-9.39,"6.51 µM [rising, single point]",
O=C(Nc1ccc(N2CCN(C(=O)c3cccs3)CC2)cc1)c1ccc([N+](=O)[O-])o1,-13.3,,
CCC(C(=O)NCC1CCCO1)n1nc(C)c2sc3ccccc3c2c1=O (stereo unspecified),-2.65,"6.51 µM [falling, single point]",
COc1ccc(N2CCN(C(=O)c3oc4ccccc4c3NC(=O)Cc3cccc(OC)c3)CC2)cc1,6.73,,
COc1cc(S(=O)(=O)Nc2c(C)nn(C)c2C)ccc1NC(C)=O,0.926,,"6.51 µM [falling, single point]"
CN(c1ccccc1)S(=O)(=O)c1ccc(C(=O)OCC(=O)NCc2ccco2)cc1,,"16.4 µM [falling, partial curve]","0.206 µM [falling, partial curve, poor fit]"
Cc1cccc(N2CCN(C(=O)n3ccnc3)CC2)c1C,,,"4.11 µM [rising, single point]"
O=C(Nc1cccn(Cc2ccccc2Cl)c1=O)NC1CCCCC1,-3.34,"0.58 µM [falling, full curve]",
c1coc(-c2cc(C3CCNCC3)[nH]n2)c1,-26.5,"0.731 µM [rising, full curve]","0.651 µM [rising, partial curve, poor fit]"
Cc1ccc(OCc2nnc(SCC(=O)Nc3sc(C)c(C)c3C#N)n2C)cc1,-18,,
CSC(=NC#N)N1CCN(c2ccc([N+](=O)[O-])cc2)CC1,,"6.51 µM [falling, single point]","6.51 µM [falling, single point]"
CCCCn1c(=N)n(CC(=O)c2ccc(OC)cc2)c2ccccc21,5.46,"1.46 µM [rising, partial curve]",
O=S(=O)(c1ccccc1)c1nc(Nc2cccc(O)c2)sc1Cl,-24.9,"3.66 µM [falling, full curve]",
CCCC(C)NC(=O)CSc1nnc2ccccn12 (stereo unspecified),22.5,"16.4 µM [rising, partial curve, poor fit]",

Structure (SMILES),cell number change [%],AC50 [1],AC50 [2]
COc1cccc(NC(=O)C2CSC3(C)CCC(=O)N23)c1 (stereo unspecified),2.66,"23.1 µM [falling, partial curve, poor fit]",
CCn1c(Cc2ccccc2)nnc1SCC(=O)OC(C)C,2.29,"29.1 µM [falling, single point]",
Cc1ccc(-c2ccc(=O)n(CCC(=O)NCCN3CCCCC3C)n2)cc1 (stereo unspecified),-37.2,"3.66 µM [falling, full curve]","1.3 µM [falling, full curve]"
O=S(=O)(c1ccccc1)N1CCN=C1SCc1ccccc1,2.37,,"2.91 µM [rising, single point]"
CN(C)S(=O)(=O)c1ccc(C(=O)OCC(=O)NC(=O)NCc2ccccc2)cc1,46.2,"29.1 µM [rising, partial curve, poor fit]","0.116 µM [rising, full curve]"
CCCC(=O)Nc1cc(OC)c(OC)cc1C(=O)O,9.61,"0.731 µM [falling, partial curve]","4.11 µM [falling, single point]"
Cn1nnc2sc3c(c2c1=O)CCCC3,40.1,,"29.1 µM [rising, single point]"
COc1ccccc1NS(=O)(=O)c1cc(NC(=O)c2sccc2C)ccc1N1CCCC1,19.4,,
CCN(CCn1cccn1)C(=O)c1cc(COc2ccc(F)cc2Cl)on1,-36.3,"29.1 µM [falling, single point]","23.1 µM [falling, single point]"
Oc1ccccc1NCC(O)Cn1ccc2ccccc21 (stereo unspecified),-9.21,,
O=C(Nc1cccc2ccccc12)NC1CCCCC1,-25,,
CC(C)C(NC(=O)C1CCCCC1)C(=O)Nc1ccccn1 (stereo unspecified),,,"0.651 µM [rising, single point]"
CS(=O)(=O)N1CCC(C(=O)Nc2cccc(C(F)(F)F)c2)CC1,-12.5,,
Cc1cc(C)n(C(=O)CCC(=O)Nc2ccc(C)c(C)c2)n1,-22.5,"11.6 µM [falling, single point]",
CCOC(=O)COc1ccc(S(=O)(=O)Nc2ccc3c(c2)OCCO3)cc1,-42.8,"7.31 µM [falling, partial curve]","20.6 µM [falling, partial curve]"
C=C1c2ccccc2NC(=S)N1Cc1ccc2c(c1)OCO2,41.9,,"11.6 µM [rising, single point]"
COc1cc(S(=O)(=O)N2CCN(C)CC2)c(OC)cc1Cl,-29.5,"0.651 µM [falling, partial curve, poor fit]","0.291 µM [falling, full curve, poor fit]"
CC(C)NS(=O)(=O)c1ccc(OCC(=O)NCc2ccc3c(c2)OCO3)c(Cl)c1,8,,
CN(C)C(/C=C/Nc1ccc(C#N)cc1)=C(C#N)C#N,-25.6,"32.6 µM [falling, single point]",
Cc1ccc(NC(=O)COc2ccc(/C=N/NC(=O)CSCc3ccccc3)cc2)cc1,,"2.31 µM [falling, partial curve]","4.11 µM [falling, partial curve, poor fit]"
O=C(Nc1ccc(F)cc1)c1cc(-c2ccccn2)nc2c(Cl)cccc12,10.2,,

# Copied from the list.
# In cell number change [%], CN(C)C(/C=C/Nc1ccc(C#N)cc1)=C(C#N)C#N has -25.6
# In AC50 [1], CCN(CCn1cccn1)C(=O)c1cc(COc2ccc(F)cc2Cl)on1 has 29.1 µM [falling, single point]

# Later entries.

Structure (SMILES),cell number change [%],AC50 [1],AC50 [2]
O=C(c1ccco1)N1CCN(C2c3ccccc3-c3ccccc32)CC1,-8.79,,
CC(=O)Nc1ccc(N/C=C/C(=O)c2ccc(Br)cc2)cc1,7.02,"29.1 µM [rising, single point]",
COc1nc(N)nc(NC23CC4CC(CC(C4)C2)C3)n1,,"6.51 µM [rising, single point]",
CC(C)COC(=O)/C(C#N)=C/c1c[nH]c2ccccc12,-39.1,"8.2 µM [falling, partial curve]","7.31 µM [falling, partial curve]"
O=C(COC(=O)c1ccc(F)cc1F)NC(=O)Nc1ccc2c(c1)OCCO2,7.46,"13 µM [rising, partial curve]",
CCOC(=O)c1ccccc1NC(=O)c1ccc(NS(C)(=O)=O)cc1,,"2.06 µM [rising, partial curve]","0.259 µM [rising, full curve, poor fit]"
O=C/C=C/c1c(-c2ccccc2)cc2oc3ccccc3cc1-2,-24.5,,
COc1ccc2nc(/N=C(\N)NC(=O)C(C)(C)C)nc(C)c2c1,-46.8,"13 µM [falling, partial curve]","14.6 µM [falling, single point]"
COCCCn1c(=S)[nH]c2sc3c(c2c1=O)CCCS3,-70.9,,"29.1 µM [falling, single point]"
OCCNc1nc2ccccc2n1-c1ccccc1,-13.8,"3.66 µM [falling, full curve, poor fit]",
O=C(c1nn(Cc2ccccc2)c(=O)c2ccccc12)N1CCc2ccccc2C1,-25.4,"1.3 µM [falling, full curve, poor fit]",
O=C(Nc1cccc(F)c1)C1CCN(S(=O)(=O)c2cnc[nH]2)CC1,2.95,,
CCOC(=O)n1c(=O)n(C)c2ccc(Cl)cc21,13.7,,
CCCc1cc(=O)[nH]c(=S)[nH]1,13.6,"0.116 µM [falling, full curve, poor fit]",
Cn1c(Cn2c(C(F)(F)F)nc3ccccc32)nc2ccccc21,24.7,"29.1 µM [rising, single point]","0.651 µM [rising, full curve, poor fit]"
NC(=O)COC(=O)c1cc(Cl)cc(Cl)c1N,30.6,,"35.5 µM [rising, single point]"
CN(C)c1nc(C(F)(F)F)cc(=O)[nH]1,,,"6.51 µM [rising, single point]"
COc1ccc(CCC(=O)Nc2ccc(S(=O)(=O)N3CCCC3)cc2)cc1OC,-22.6,"0.82 µM [rising, full curve, poor fit]",
CO/N=C/C(=N\Nc1ccccc1)C(=O)c1ccccc1,34.8,,"13 µM [rising, single point]"
Cc1cccc(NC(=S)N(CCN2CCOCC2)Cc2ccccc2F)c1,45.6,"29.1 µM [rising, single point]","29.1 µM [rising, single point]"

# Quoted at random: two entries already listed, in no set order.
Structure (SMILES),cell number change [%],AC50 [1],AC50 [2]
CO/N=C/C(=N\Nc1ccccc1)C(=O)c1ccccc1,34.8,,"13 µM [rising, single point]"
O=C(Nc1cccc(F)c1)C1CCN(S(=O)(=O)c2cnc[nH]2)CC1,2.95,,

# Source: PubChem BioAssay AID2685 (National Center for Advancing Translational Sciences (NCATS), 2010)
